This assay concerns the target Scavenger receptor class F, member 1 (SCARF-1) (human (endogenous in liver tissue and HSEC)) (UniProt Q14162). Put plainly: Western blot after SDS-PAGE; 20 ug lysate of liver tissue or cultured HSEC on 10% SDS-PAGE, blotted with anti-SCARF-1 (Abcam ab92308); ~90 kDa species called monomer, ~180 kDa species called dimer. In general terms: In western blotting, separated proteins are transferred to a membrane and probed.

Results are given in words; binding and its absence hold for the method and conditions named. Some results given as binding are weak or reduced against the parent protein; the word gives no strength.

B1: Scavenger receptor class F, member 1 (SCARF-1) (receptor, UniProt Q14162 20-830)
chain: SELDPKGQHVCVASSPSAELQCCAGWRQKDQECTIPICEGPDACQKDEVCVKPGLCRCKPGFFGAHCSSRCPGQYWGPDCRESCPCHPHGQCEPATGACQCQADRWGARCEFPCACGPHGRCDPATGVCHCEPGWWSSTCRRPCQCNTAAARCEQATGACVCKPGWWGRRCSFRCNCHGSPCEQDSGRCACRPGWWGPECQQQCECVRGRCSAASGECTCPPGFRGARCELPCPAGSHGVQCAHSCGRCKHNEPCSPDTGSCESCEPGWNGTQCQQPCLPGTFGESCEQQCPHCRHGEACEPDTGHCQRCDPGWLGPRCEDPCPTGTFGEDCGSTCPTCVQGSCDTVTGDCVCSAGYWGPSCNASCPAGFHGNNCSVPCECPEGLCHPVSGSCQPGSGSRDTALIAGSLVPLLLLFLGLACCACCCWAPRSDLKDRPARDGATVSRMKLQVWGTLTSLGSTLPCRSLSSHKLPWVTVSHHDPEVPFNHSFIEPPSAGWATDDSFSSDPESGEADEVPAYCVPPQEGMVPVAQAGSSEASLAAGAFPPPEDASTPFAIPRTSSLARAKRPSVSFAEGTKFAPQSRRSSGELSSPLRKPKRLSRGAQSGPEGREAEESTGPEEAEAPESFPAAASPGDSATGHRRPPLGGRTVAEHVEAIEGSVQESSGPVTTIYMLAGKPRGSEGPVRSVFRHFGSFQKGQAEAKVKRAIPKPPRQALNRKKGSPGLASGSVGQSPNSAPKAGLPGATGPMAVRPEEAVRGLGAGTESSRRAQEPVSGCGSPEQDPQKQAEEERQEEPEYENVVPISRPPEP
For the molecule B1, the binding result is “binds”.

The record behind these values is PMC5730566.
